Results: patent publication US20080025931A1, “Cosmetic method for limiting age-related hollowing of the face” (priority 2006, published 2008)

Tested on: human adipocytes obtained from the abdominal region
Assay: Stimulation of lipogenesis by measuring the incorporation of 14C-acetate into the lipids
Format: cell-based
Settings: interference with scintillation assay
Description: The activity of a Vitreoscilla filiformis cell extract as prepared according to Example 1 on a local adipose development was evaluated. The study was carried out on human adipocytes obtained from the abdominal region. Various parameters representing the adipocyte physiology were analysed: • a) stimulation of lipogenesis by measurement of the incorporation of ^14C-acetate into lipids; • b) stimulation of adipocyte differentiation by measuring the expression of adipocyte differentiation markers: LPL (lipoprotein lipase, involved in the storage of fat; • c) monitoring of the enrichment in lipids by specific staining (AdipoRed™) and imaging; • d) monitoring of the cell size/size distribution by flow cytometry and fluorescent labelling (AdipoRed™). Stimulation of Lipogenesis by Measuring the Incorporation of ^14C-acetate into the Lipids The adipocytes were isolated after an abdominal plastic surgery operation and then incubated in the presence of collagenase and then washed and taken up in test medium. […] After 4 h of treatment, the lipids were extracted with methanol/chloroform/water and the incorporated radioactivity was counted by liquid scintillation.

Row | Compound | % quenching (1 μM) | % quenching (20 μM)
1 | CC(C)NCC(O)c1ccc(O)c(O)c1 (centres unmarked) [Isoproterenol] | 0% | –
2 | C/C=C/C/C=C/CCC(=O)[C@H]1O[C@H]1C(N)=O [Cerulenin] | – | 0%
